Data as given in PubChem BioAssay AID686938 (Drosophila RNAi Screening Center, 2013)
In all, the deposit lists about 23,000 reagents; this is a random part of those with a known target gene and a result. Over the whole deposit, 75 (0.33%) got an active call. 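Raw plate signals without normalisation; calls rest on plate z-scores that were not deposited; ratio present for only 364 wells.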 Unmarked entries are inactive. The numbers tell different reagents against one gene apart. A plus sign joins genes that one reagent is predicted to hit. The record does not give: the dose of the treatment.

Screen: 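Fly genes required for calcium entry once internal stores are emptied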 (primary screen)
System: Drosophila S2R+ cells
Reagents: long dsRNA against Drosophila genes, about 0.25 µg dsRNA per well, roughly 10,000 cells
Duration: 5 days of knock-down before the calcium assay
Conditions: thapsigargin (SERCA pump blocker) to empty calcium stores; entry signal taken 4 min after adding it
Measured: 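Per-well fluo-4 fluorescence in two replicates, unnormalised, measured in resting cells and 4 min after store depletion by the SERCA blocker thapsigargin; ratio of the two present in few wells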
Reading the numbers: calcium entry signal: higher = stronger calcium signal after store depletion; resting calcium signal: higher = higher resting calcium signal
Units: calcium entry signal in fluorescence units; resting calcium signal in fluorescence units
Call rule: 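Called when the plate z-score of the entry-to-rest ratio, mean of duplicates, falls below −3; wells with low overall dye signal (Fmax z below −2) or more than five off-targets excluded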
Meaning of the calls: active = strongly reduced calcium entry; inactive = no strong reduction

Against CG12607, the entry reads calcium entry signal, replicate 1 = 1.55e7; calcium entry signal, replicate 2 = 2.82e7; resting calcium signal, replicate 1 = 7.49e6; resting calcium signal, replicate 2 = 1.24e7.
With knock-down of CG13251 the results were calcium entry signal, replicate 1 = 3.00e7; calcium entry signal, replicate 2 = 5.09e7; resting calcium signal, replicate 1 = 1.44e7; resting calcium signal, replicate 2 = 2.29e7.
Knock-down of CG30349 #1 came out at: calcium entry signal, replicate 1 = 1.71e7 (active); calcium entry signal, replicate 2 = 2.66e7; resting calcium signal, replicate 1 = 1.07e7; resting calcium signal, replicate 2 = 1.23e7.
Silencing of CG30349 #2 resulted in: calcium entry signal, replicate 1 = 1.56e7; calcium entry signal, replicate 2 = 2.90e7; resting calcium signal, replicate 1 = 9.29e6; resting calcium signal, replicate 2 = 1.40e7.
Silencing of CG15198 gave: calcium entry signal, replicate 1 = 4.22e7; calcium entry signal, replicate 2 = 4.45e7; resting calcium signal, replicate 1 = 2.02e7; resting calcium signal, replicate 2 = 2.26e7.
After knock-down of CG33791 + CG18170 #1, the screen gave calcium entry signal, replicate 1 = 4.11e7; calcium entry signal, replicate 2 = 5.21e7; resting calcium signal, replicate 1 = 2.11e7; resting calcium signal, replicate 2 = 2.30e7.
After knock-down of CG33791 + CG18170 #2, the record shows calcium entry signal, replicate 1 = 4.25e7; calcium entry signal, replicate 2 = 4.54e7; resting calcium signal, replicate 1 = 2.24e7; resting calcium signal, replicate 2 = 1.98e7.
For tw, the entry reads calcium entry signal, replicate 1 = 3.85e7; calcium entry signal, replicate 2 = 5.46e7; resting calcium signal, replicate 1 = 1.75e7; resting calcium signal, replicate 2 = 2.36e7.
For CG10903, the entry reads calcium entry signal, replicate 1 = 4.14e7; calcium entry signal, replicate 2 = 2.56e7; resting calcium signal, replicate 1 = 2.31e7; resting calcium signal, replicate 2 = 1.40e7.

Copied from the list.
CG33791 + CG18170 #2, resting calcium signal, replicate 2 → 1.98e7
CG12607, calcium entry signal, replicate 1: 1.55e7

Next results follow.
For CG34263 the deposit lists calcium entry signal, replicate 1 = 3.38e7; calcium entry signal, replicate 2 = 4.44e7; resting calcium signal, replicate 1 = 1.68e7; resting calcium signal, replicate 2 = 1.99e7.
snRNP-U1-C gave calcium entry signal, replicate 1 = 1.68e7; calcium entry signal, replicate 2 = 1.94e7; resting calcium signal, replicate 1 = 1.06e7; resting calcium signal, replicate 2 = 4.60e7.
CG5235 showed calcium entry signal, replicate 1 = 4.53e7; calcium entry signal, replicate 2 = 6.84e7; resting calcium signal, replicate 1 = 2.12e7; resting calcium signal, replicate 2 = 2.63e7.
Adgf-D showed calcium entry signal, replicate 1 = 3.26e7; calcium entry signal, replicate 2 = 4.93e7; resting calcium signal, replicate 1 = 1.64e7; resting calcium signal, replicate 2 = 7.53e7.
For Zip42C.1 the deposit lists calcium entry signal, replicate 1 = 3.58e7; calcium entry signal, replicate 2 = 5.20e7; resting calcium signal, replicate 1 = 1.92e7; resting calcium signal, replicate 2 = 2.41e7.
Against D12, the values are calcium entry signal, replicate 1 = 3.91e7; resting calcium signal, replicate 1 = 2.41e7.
With knock-down of mle the results were calcium entry signal, replicate 1 = 3.65e7; calcium entry signal, replicate 2 = 3.56e7; resting calcium signal, replicate 1 = 2.09e7; resting calcium signal, replicate 2 = 1.88e7.
With knock-down of Hmbs the results were calcium entry signal, replicate 1 = 3.20e7; calcium entry signal, replicate 2 = 2.52e7; resting calcium signal, replicate 1 = 1.36e7; resting calcium signal, replicate 2 = 1.30e7.
Silencing of meigo gave: calcium entry signal, replicate 1 = 2.49e7; calcium entry signal, replicate 2 = 2.82e7; resting calcium signal, replicate 1 = 6.90e7; resting calcium signal, replicate 2 = 1.53e7.
For CG10097 + CG10096 #1, the values are calcium entry signal, replicate 1 = 3.60e7; calcium entry signal, replicate 2 = 4.86e7; resting calcium signal, replicate 1 = 1.57e7; resting calcium signal, replicate 2 = 2.04e7.
Silencing of CG10097 + CG10096 #2 resulted in: calcium entry signal, replicate 1 = 2.92e7; calcium entry signal, replicate 2 = 3.85e7; resting calcium signal, replicate 1 = 1.73e7; resting calcium signal, replicate 2 = 1.98e7.
Depletion of mRpL47 gave: calcium entry signal, replicate 1 = 4.38e7; calcium entry signal, replicate 2 = 3.03e7; resting calcium signal, replicate 1 = 2.01e7; resting calcium signal, replicate 2 = 1.64e7.
